From the supplement of paper PMC11732987, “Enantioselective OTUD7B fragment discovery through chemoproteomics screening and high-throughput optimisation” (Communications Chemistry, 2025)
Some of the results follow. The data scatter; read single values as rough.

How the values were obtained:
[1] = compound: ClCC(=O)N[C@@H]1CCCc2ccccc12; assay: log2 mean competition ratio of IA-DTB cysteine labelling (DMSO/compound) (log2 ratio); higher = stronger cysteine engagement by compound; settings: treatment time: 4 h, cell line lysate: HEK293T
Experimental: (§1)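 IA-DTB competitive cysteine chemoproteomics in HEK293T RIPA lysate. Lysates were treated with compound 29 or 30 at 50 or 200 µM for 4 h, then IA-DTB (500 µM, 1 h), trypsin-digested, NeutrAvidin-enriched and analysed by diaPASEF. Competition ratio = intensity DMSO / intensity compound (n=4 treated, n=64 DMSO); binding: mean log2 CR ≥ 1 and p ≤ 0.05 plus QC filters. Target is the cysteine site.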

[2] = compound: ClCC(=O)N[C@H]1CCCc2ccccc12; assay: as above; settings: treatment time: 4 h, cell line lysate: HEK293T
Experimental: as §1

| Target | log2 mean competition ratio ([1]; 50 µM) | log2 mean competition ratio ([1]; 200 µM) | log2 mean competition ratio ([2]; 50 µM) | log2 mean competition ratio ([2]; 200 µM) |
| --- | --- | --- | --- | --- |
| QRSL1 C278 (UniProt Q9H0R6) | -0.0199 | -0.381 | -0.202 | -0.344 |
| RAB3GAP1 C693 (UniProt Q15042) | -0.145 | -0.176 | -0.434 | -0.098 |
| PTCD1 C183 (UniProt O75127) | 0.927 | 0.684 | 0.537 | 0.773 |
| PTPN1 C215 (UniProt P18031) | 0.0524 | 0.176 | 0.0877 | -0.0238 |
| RAC1 C178 (UniProt P63000) | -0.0206 | -0.286 | 0.29 | -0.242 |
| RABAC1 C64 (UniProt Q9UI14) | -0.159 | -0.228 | -0.153 | -0.246 |
| PSMA6 C47 (UniProt P60900) | 0.191 | -0.0259 | 0.526 | -0.118 |
| PUM1 C5 (UniProt Q14671) | 0.0674 | 0.187 | 0.241 | 0.375 |
| RAB3GAP2 C608 (UniProt Q9H2M9) | 0.365 | 0.748 | -0.0975 | 0.713 |
| PYGB C319 (UniProt P11216) | 0.0363 | 0.093 | 0.0281 | 0.00157 |
| PTPDC1 C551 (UniProt A2A3K4) | 0.131 | 0.191 | 0.15 | 0.205 |
| PSMD1 C633 | 0.223 | -0.0353 | -0.152 | -0.374 |
| RAB7A C143 (UniProt P51149) | 0.186 | -0.0459 | 0.562 | 0.0569 |
| PTPN13 C1812 (UniProt Q12923) | -0.224 | -0.179 | -0.391 | -0.0504 |
| PSME4 C1267 (UniProt Q14997) | 0.0429 | -0.369 | -0.237 | -0.316 |
| RABEPK C243 (UniProt Q7Z6M1) | 0.088 | -0.585 | -0.027 | -0.705 |
| RAB39B C125 (UniProt Q96DA2) | -0.047 | 0.378 | 0.102 | 0.305 |
| RACGAP1 C109 (UniProt Q9H0H5) | 0.25 | -0.208 | 0.994 | -0.0234 |
| RAD1 C215 (UniProt O60671) | -0.0202 | 0.383 | -0.183 | -0.145 |
| RABGAP1 C941 (UniProt Q9Y3P9) | -0.479 | -0.268 | -0.138 | -0.279 |
| PTPN13 C324 (UniProt Q12923) | 0.26 | -0.000176 | 0.174 | 0.079 |
| PUS3 C453 (UniProt Q9BZE2) | -0.199 | -0.015 | -0.277 | 0.281 |
| PSMC6 C193 (UniProt P62333) | 0.488 | 0.541 | 0.216 | 0.499 |
| PSMD6 C266 (UniProt Q15008) | -0.0755 | -0.229 | 0.21 | -0.18 |
| PRRC2A C1821 (UniProt P48634) | -0.03 | -0.17 | -0.216 | -0.149 |

Nothing new here: an excerpt of the list.

| Target | log2 mean competition ratio ([1]; 50 µM) | log2 mean competition ratio ([1]; 200 µM) | log2 mean competition ratio ([2]; 50 µM) | log2 mean competition ratio ([2]; 200 µM) |
| --- | --- | --- | --- | --- |
| PTPN1 C215 (UniProt P18031) | 0.0524 | 0.176 | 0.0877 | -0.0238 |
| RAC1 C178 (UniProt P63000) | -0.0206 | -0.286 | 0.29 | -0.242 |

The listing continues.

| Target | log2 mean competition ratio ([1]; 50 µM) | log2 mean competition ratio ([1]; 200 µM) | log2 mean competition ratio ([2]; 50 µM) | log2 mean competition ratio ([2]; 200 µM) |
| --- | --- | --- | --- | --- |
| PTPN1 C121 (UniProt P18031) | 0.216 | -0.0223 | -0.171 | 0.0467 |
| PTCD1 C695 (UniProt O75127) | -0.156 | -0.043 | -0.182 | -0.0432 |
| RACK1 C168 | 0.608 | -0.26 | 0.797 | -0.232 |
| PSMC4 C210 (UniProt P43686) | 0.693 | 0.299 | 0.738 | 0.203 |
| PTPN13 C2229 (UniProt Q12923) | -0.266 | -0.117 | -0.751 | -0.607 |
| PWP1 C329 (UniProt Q13610) | 0.149 | -0.201 | -0.229 | 0.129 |
| RAB9A C142 (UniProt P51151) | -0.278 | 0.162 | -0.163 | 0.224 |
| PTBP3 C500 (UniProt O95758) | 0.313 | -0.207 | 0.228 | -0.202 |
| RAB8A C123 (UniProt P61006) | -0.393 | -0.0275 | -0.315 | -0.274 |
| RAB1A C126 (UniProt P62820) | 0.0821 | -0.182 | 0.116 | -0.106 |
| PSMD2 C251 (UniProt Q13200) | 0.0791 | -0.109 | -0.256 | -0.167 |
| PTPN18 C46 (UniProt Q99952) | -0.0426 | -0.0979 | -0.0972 | -0.213 |
| PTPN1 C344 (UniProt P18031) | 0.0143 | -0.129 | -0.101 | -0.0992 |
| RAD51C C124 (UniProt O43502) | -0.148 | 0.0774 | -0.14 | 0.0742 |
| RAD54L2 C601 (UniProt Q9Y4B4) | 0.184 | -0.17 | 0.328 | -0.0262 |
| RAB3D C137 (UniProt O95716) | -0.151 | 0.0265 | -0.227 | 0.11 |
| PTK2 C288 (UniProt Q05397) | 0.538 | -0.332 | 0.302 | -0.233 |
| PSAT1 C224 (UniProt Q9Y617) | 0.105 | -0.279 | 0.249 | -0.0658 |
| QPRT C111 (UniProt Q15274) | -0.0118 | 0.207 | 0.595 | 0.0979 |
| PTPN1 C32 (UniProt P18031) | -0.0221 | 0.202 | 0.0288 | 0.222 |
| PSMC5 C209 | 0.191 | 0.172 | 0.0441 | 0.0431 |
| PSMC1 C148 | -0.243 | 0.265 | -0.484 | -0.0605 |
| PTPN23 C697 (UniProt Q9H3S7) | -0.0703 | 0.0824 | -0.0626 | 0.0516 |
| PSMC2 C236 (UniProt P35998) | -0.182 | 0.043 | 0.276 | 0.396 |
